This passage reports binding results from paper PMC5788269.

Chains of the proteins cited; added tags and fusions are not shown. Lines headed by an entry give the natural chain unless they say otherwise; changes in a name come on top.
UniProt Q06632: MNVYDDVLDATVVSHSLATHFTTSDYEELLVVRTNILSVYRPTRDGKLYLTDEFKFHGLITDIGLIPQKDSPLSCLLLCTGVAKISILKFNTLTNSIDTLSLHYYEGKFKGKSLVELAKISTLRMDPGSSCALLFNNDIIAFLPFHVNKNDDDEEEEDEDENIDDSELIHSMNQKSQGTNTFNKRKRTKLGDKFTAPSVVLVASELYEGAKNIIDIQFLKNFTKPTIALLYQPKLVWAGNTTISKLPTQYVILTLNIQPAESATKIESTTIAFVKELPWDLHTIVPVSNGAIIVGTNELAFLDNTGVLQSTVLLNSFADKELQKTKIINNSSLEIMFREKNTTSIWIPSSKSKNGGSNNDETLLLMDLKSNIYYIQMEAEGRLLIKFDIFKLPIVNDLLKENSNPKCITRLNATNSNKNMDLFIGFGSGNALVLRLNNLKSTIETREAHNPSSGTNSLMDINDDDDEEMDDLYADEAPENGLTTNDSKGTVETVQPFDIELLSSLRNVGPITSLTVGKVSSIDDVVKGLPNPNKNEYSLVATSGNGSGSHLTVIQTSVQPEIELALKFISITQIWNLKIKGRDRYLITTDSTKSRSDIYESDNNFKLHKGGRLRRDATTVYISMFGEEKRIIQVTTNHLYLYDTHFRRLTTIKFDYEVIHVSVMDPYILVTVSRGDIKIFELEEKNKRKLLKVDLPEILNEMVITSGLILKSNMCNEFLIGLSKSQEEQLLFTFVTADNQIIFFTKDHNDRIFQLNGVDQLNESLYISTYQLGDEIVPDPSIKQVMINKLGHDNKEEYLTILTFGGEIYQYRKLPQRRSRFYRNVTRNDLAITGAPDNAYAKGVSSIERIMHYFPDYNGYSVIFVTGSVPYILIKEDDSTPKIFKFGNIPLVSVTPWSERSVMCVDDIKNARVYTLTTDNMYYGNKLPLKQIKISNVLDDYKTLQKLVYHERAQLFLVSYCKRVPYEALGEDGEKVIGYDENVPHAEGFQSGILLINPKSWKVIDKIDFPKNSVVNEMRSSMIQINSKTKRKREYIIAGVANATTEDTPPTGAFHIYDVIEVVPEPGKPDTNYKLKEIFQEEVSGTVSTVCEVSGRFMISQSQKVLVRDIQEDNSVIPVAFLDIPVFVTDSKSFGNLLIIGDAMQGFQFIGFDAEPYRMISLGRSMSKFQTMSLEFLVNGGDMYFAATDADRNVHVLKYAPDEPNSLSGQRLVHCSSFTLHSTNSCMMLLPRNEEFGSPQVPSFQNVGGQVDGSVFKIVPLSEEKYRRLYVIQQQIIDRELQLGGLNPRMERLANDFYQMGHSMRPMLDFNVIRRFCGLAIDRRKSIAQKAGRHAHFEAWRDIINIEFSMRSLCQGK
UniProt P42841: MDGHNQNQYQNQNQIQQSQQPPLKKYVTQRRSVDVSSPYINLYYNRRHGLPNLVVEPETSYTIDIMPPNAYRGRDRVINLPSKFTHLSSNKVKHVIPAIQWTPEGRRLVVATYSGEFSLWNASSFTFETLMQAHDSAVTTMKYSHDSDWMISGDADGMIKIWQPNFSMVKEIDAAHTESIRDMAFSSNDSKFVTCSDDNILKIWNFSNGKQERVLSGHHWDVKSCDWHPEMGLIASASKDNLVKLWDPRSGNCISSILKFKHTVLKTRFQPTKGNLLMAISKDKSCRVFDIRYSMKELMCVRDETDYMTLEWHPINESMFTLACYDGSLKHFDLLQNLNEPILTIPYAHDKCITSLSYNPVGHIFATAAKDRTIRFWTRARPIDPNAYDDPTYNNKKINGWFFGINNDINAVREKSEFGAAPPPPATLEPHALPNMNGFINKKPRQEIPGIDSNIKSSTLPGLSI
UniProt P29468: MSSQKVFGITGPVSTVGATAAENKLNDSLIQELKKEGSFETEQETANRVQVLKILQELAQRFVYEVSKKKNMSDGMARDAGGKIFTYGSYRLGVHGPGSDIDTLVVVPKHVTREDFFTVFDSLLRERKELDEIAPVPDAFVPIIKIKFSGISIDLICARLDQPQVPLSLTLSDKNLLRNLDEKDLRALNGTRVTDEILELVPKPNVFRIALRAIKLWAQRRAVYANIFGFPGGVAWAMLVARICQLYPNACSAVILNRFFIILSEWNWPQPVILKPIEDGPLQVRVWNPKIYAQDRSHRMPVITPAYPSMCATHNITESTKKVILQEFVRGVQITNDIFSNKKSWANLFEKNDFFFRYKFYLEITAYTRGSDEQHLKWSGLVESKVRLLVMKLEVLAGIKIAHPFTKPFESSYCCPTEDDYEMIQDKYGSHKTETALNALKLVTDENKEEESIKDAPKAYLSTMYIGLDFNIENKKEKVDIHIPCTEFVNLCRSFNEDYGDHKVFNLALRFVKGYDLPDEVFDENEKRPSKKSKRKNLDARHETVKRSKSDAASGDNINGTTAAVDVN
UniProt P45976: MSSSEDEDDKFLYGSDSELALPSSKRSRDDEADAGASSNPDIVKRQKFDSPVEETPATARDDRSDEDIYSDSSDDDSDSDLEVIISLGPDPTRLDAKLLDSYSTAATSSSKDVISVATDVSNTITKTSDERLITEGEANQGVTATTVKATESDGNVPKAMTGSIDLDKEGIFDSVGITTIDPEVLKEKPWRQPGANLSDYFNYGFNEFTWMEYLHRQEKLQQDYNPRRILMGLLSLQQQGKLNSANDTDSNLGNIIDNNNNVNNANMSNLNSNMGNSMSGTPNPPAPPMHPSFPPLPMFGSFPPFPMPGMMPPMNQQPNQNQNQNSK
UniProt Q06102: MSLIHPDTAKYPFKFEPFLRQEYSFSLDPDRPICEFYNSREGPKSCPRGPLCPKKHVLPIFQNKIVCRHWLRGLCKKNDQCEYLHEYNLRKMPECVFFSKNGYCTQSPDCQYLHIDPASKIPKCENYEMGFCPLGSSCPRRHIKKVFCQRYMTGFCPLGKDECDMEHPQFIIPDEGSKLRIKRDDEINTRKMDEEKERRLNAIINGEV

Results are given in words; binding and its absence hold for the method and conditions named. Some results given as binding are weak or reduced against the parent protein; the word gives no strength.

This assay addresses polymerase module of CPF (recombinant; Cft1, Pfs2, Pap1, Fip1, Yth1) (yeast) (UniProt Q06632+P42841+P29468+P45976+Q06102). Nature of the assay: pull-down; polymerase module immobilized, incubated with purified MBP, CF IA or Rna14–Rna15; Coomassie-stained SDS-PAGE; both purified.

B1: Rna14–Rna15 subcomplex of CF IA (complex, UniProt P25298 1-677; P25299 1-296)
chain 1: MSSSTTPDLLYPSADKVAEPSDNIHGDELRLRERIKDNPTNILSYFQLIQYLETQESYAKVREVYEQFHNTFPFYSPAWTLQLKGELARDEFETVEKILAQCLSGKLENNDLSLWSTYLDYIRRKNNLITGGQEARAVIVKAFQLVMQKCAIFEPKSSSFWNEYLNFLEQWKPFNKWEEQQRIDMLREFYKKMLCVPFDNLEKMWNRYTQWEQEINSLTARKFIGELSAEYMKARSLYQEWLNVTNGLKRASPINLRTANKKNIPQPGTSDSNIQQLQIWLNWIKWERENKLMLSEDMLSQRISYVYKQGIQYMIFSAEMWYDYSMYISENSDRQNILYTALLANPDSPSLTFKLSECYELDNDSESVSNCFDKCTQTLLSQYKKIASDVNSGEDNNTEYEQELLYKQREKLTFVFCVYMNTMKRISGLSAARTVFGKCRKLKRILTHDVYVENAYLEFQNQNDYKTAFKVLELGLKYFQNDGVYINKYLDFLIFLNKDSQIKTLFETSVEKVQDLTQLKEIYKKMISYESKFGNLNNVYSLEKRFFERFPQENLIEVFTSRYQIQNSNLIKKLELTYMYNEEEDSYFSSGNGDGHHGSYNMSSSDRKRLMEETGNNGNFSNKKFKRDSELPTEVLDLLSVIPKRQYFNTNLLDAQKLVNFLNDQVEIPTVESTKSG
chain 2: MNRQSGVNAGVQNNPPSRVVYLGSIPYDQTEEQILDLCSNVGPVINLKMMFDPQTGRSKGYAFIEFRDLESSASAVRNLNGYQLGSRFLKCGYSSNSDISGVSQQQQQQYNNINGNNNNNGNNNNNSNGPDFQNSGNANFLSQKFPELPSGIDVNINMTTPAMMISSELAKKPKEVQLKFLQKFQEWTRAHPEDAVSLLELCPQLSFVTAELLLTNGICKVDDLIPLASRPQEEASATNNNSVNEVVDPAVLNKQKELLKQVLQLNDSQISILPDDERMAIWDLKQKALRGEFGAF
Turning to B1, the binding result is reported as “binds”.
